Source: the supplement of paper PMC11150407
The whole screen tested about 3,000 compounds, of which about 45 (2%) showed an effect of 50% or more. The list shows a part of the results.

Test system: MOLM1 and UCSD/AML1 (averaged)
Assay: cell viability relative to DMSO control (POC); higher = less growth inhibition
Conditions: 1 µM; 72 h
Experimental: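 Primary viability screen in the 3q26 EVI1-high AML cell lines MOLM1 and UCSD/AML1, compounds at 1 uM for 72 h. ATP CellTiter-Glo read-out given as percent viable over DMSO control (POC), averaged over duplicates. This mapping covers the TimTec NDL-3000 natural derivative library, whose compounds are identified by TimTec catalogue codes (ST...).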

Structure (SMILES)	cell viability
O=C(CSc1nc2ccccc2c(=O)[nH]1)Nc1ccccc1	83.6%
COC(=O)COc1ccc2c(c1)O/C(=C\c1ccc(OC)cc1)C2=O	89.3%
CC1CCc2nc(S[C@H]3CC(=O)[C@@H]4OC[C@H]3O4)nc(C(F)(F)F)c2C1 (some centres not stated)	39.9%
COc1cc(C(=O)O)nc2ccccc12	96%
O=C(O)[C@@H]1Cc2ccccc2N1	122%
NC(CCCC(=O)O)C(=O)O (configuration not stated)	96%
CCCNC(=O)c1cc(=O)n(CC(=O)Nc2cccc(C)c2)c2ccccc12	90.9%
COc1cc2c(c(NC(=O)c3nn(-c4ccccc4)nc3C)c1OC)C(=O)OC2	99.1%
Cc1cc2c(C(C)C)c(O)c(O)c(C=NCCOc3ccc4c(c3)OCO4)c2c(O)c1-c1c(C)cc2c(C(C)C)c(O)c(O)c(C=NCCOc3ccc4c(c3)OCO4)c2c1O	98.1%
COc1cc(/C=C2/SC(=Nc3cccc(Cl)c3Cl)NC2=O)cc2c1OCO2	103%
COc1ccc(C(C)=O)c(OC)c1	101%
COC(=O)c1cccc(CNC(=O)CN2CCc3ccccc3C2)c1	94.2%
CCOc1ccc(-c2nc(CSc3nc4c(=O)[nH]cnc4n3C)c(C)o2)cc1	101%
CCCCOc1ccc(C(=O)N/C(=C\c2ccc(Cl)cc2)C(=O)NCCc2c(C)[nH]c3ccccc23)cc1	106%
Cc1[nH]c2ccccc2c1CCNC(=O)c1ccccc1NC(=O)c1cccs1	103%
COc1cccc(C2NCCc3c2[nH]c2ccccc32)c1OC (configuration not stated)	80.9%
O=c1ccc2cc(S(=O)(=O)N3CCCCC3)ccc2o1	108%
COc1cc(C(=O)Nc2ccccc2C(=O)NCc2ccccc2)cc(OC)c1OC	85.2%
O=C(Nc1cccc(Cl)c1Cl)c1c(O)c2ccccc2[nH]c1=O	98%
Cc1ccc2occ(C)c(=O)c2c1	98.5%
CCCNC(=O)c1cc(=O)n(CC(=O)Nc2cccc(Cl)c2)c2ccccc12	91.1%
CCN(CC)c1ccc(C2C3CCCCC3(O)CCN2C(=O)/C=C/c2cc(OC)c(OC)c(OC)c2)cc1 (configuration not stated)	89.1%
Cc1ccc(-n2c(SCC(=O)Nc3ccc(F)c(Cl)c3)nc3c(=O)[nH]cnc32)cc1	116%
CC[C@H](c1ccc(O)cc1)[C@@H](CC)c1ccc(O)cc1	87.3%
N[C@@H](CC(=O)OCc1ccccc1)C(=O)O	96.4%
Cc1nc2c(nc(SCc3nc(-c4cccc(Cl)c4)oc3C)n2C)c(=O)[nH]1	108%

Structure (SMILES)	cell viability
Cc1ccc2c(=O)c(O)c(-c3ccc(F)cc3)oc2c1	94%
CCc1ccc2oc(=O)cc(CN3CCN(Cc4ccc(F)cc4Cl)CC3)c2c1	95.1%
COc1ccc(OC)c(C2Nc3ccccc3NC3=C2C(=O)CC(c2ccccc2Cl)C3)c1 (configuration not stated)	98.3%
Cn1c2c(c(=O)n(C)c1=O)C1(C(=O)Nc3ccccc31)C(C#N)=C(N)O2 (configuration not stated)	101%
NC(Cc1cccs1)C(=O)O (configuration not stated)	97.4%
COc1cc(Cc2nccc3cc(OC)c(OC)cc23)c(NC(=O)c2cc(OC)c(OC)c(OC)c2)cc1OC	95.3%
COc1cc(C(=O)N2c3ccccc3C(C)=CC2(C)C)cc(OC)c1OC	29.3%
COc1ccc(C)cc1NC(=O)CSc1nc2ccccc2c(=O)[nH]1	110%
CCc1nnc(NC(=O)Cc2c(C)n(C(=O)c3ccc(Cl)cc3)c3ccc(OC)cc23)s1	92.6%
CC(C)OC(=O)C1=C(N)Oc2c(oc(CO)cc2=O)C1c1cccc(Cl)c1Cl (configuration not stated)	99.5%
COc1ccc(NC(=O)C2Cc3ccccc3CN2S(=O)(=O)c2ccc(C)cc2)cc1 (configuration not stated)	95.2%
Cc1cc(F)ccc1NC(=O)Cn1c(=O)cc(C(=O)NCc2ccccc2)c2ccccc21	87.1%
Nc1nc2c(nc(N/N=C\c3ccc(Br)c([N+](=O)[O-])c3)n2C2OC(CO)C(O)C2O)c(=O)[nH]1 (configuration not stated)	101%
CCCOc1ccc(C=O)cc1OC	103%
Cc1ccc(CSc2nc3c(=O)[nH]cnc3n2-c2ccc(C)cc2)cc1	96.6%
OCC1OC(Nc2ccccn2)C(O)C(O)C1O (configuration not stated)	111%
COc1cc(C)cc(OC)c1O	101%
COc1ccc(C(=O)Nc2ccc(-n3nc(C)c4ccccc4c3=O)cc2)cc1OC	100%
COCCOC(=O)c1c(C)n(CCOc2cccc(Cl)c2Cl)c2c1cc(O)c1ccccc12	99%
Cc1oc(-c2ccccc2)cc1C(=O)NC(Cc1c[nH]c2ccccc12)C(=O)O (configuration not stated)	110%
COc1cccc2cc(C(=O)NCCc3c(C)[nH]c4ccc(Br)cc34)c(=O)oc12	111%
COc1cc(C(=O)CC2(O)C(=O)N(Cc3ccc(F)cc3)c3ccccc32)cc(OC)c1OC (configuration not stated)	100%
CC(=O)N/C(=C\c1ccccc1)C(=O)Nc1cc(C)ccc1C	98.3%
Cn1c2nc(=O)[nH]c(=O)c-2nc2ccccc21	96.9%
N=C1S/C(=C\c2cc3c(cc2Br)OCO3)C(=O)N1c1ccc(OC(F)(F)F)cc1	106%
CC12CCC(C(=O)OC1=O)C2(C)C (configuration not stated)	97.6%

Of the compounds above, two contain a CF3 group:
Structure (SMILES)	cell viability
CC1CCc2nc(S[C@H]3CC(=O)[C@@H]4OC[C@H]3O4)nc(C(F)(F)F)c2C1 (some centres not stated)	39.9%
N=C1S/C(=C\c2cc3c(cc2Br)OCO3)C(=O)N1c1ccc(OC(F)(F)F)cc1	106%
